# This is one part of the list. Shown are side measurements of this screen, not its main read-out; they come without a call. Compounds called inactive in the main read-out are mostly missing here. Words in brackets tell the shape of the fitted curve; partial curves, single points and poor fits give uncertain potencies.
# Experiment: qHTS Assay for Lipid Storage Modulators in Drosophila S3 Cells;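 as to cell number change: cells counted by Cell Tracker Red CMTPX staining in the red channel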
# Settings: BODIPY lipid droplet fluorescence, 18-24 h; for cell number change: measured here: cell count max response, cells fed with added oleic acid
# Outline: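 Drosophila S3 cells loaded with oleic acid (400 uM, as added) and compounds at several concentrations; lipid droplets imaged by 488-nm laser-scanning cytometry, 500–530 nm intensity and object ratio to cell channel. Percent activity normalized to 20 uM Triacsin C.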
# [1] = measured here: cell number channel AC50, cells fed with added oleic acid
# [2] = measured here: lipid fluorescence (Fed channel) AC50, cells fed with added oleic acid
structure (smiles),measurement,setting,value
O=C1CN(CC(=O)Nc2cccc(Cl)c2Cl)c2ccccc2N1,AC50,[1],"0.731 µM [rising, single point]"
COc1ccccc1C(=O)Nc1nnc(S(=O)(=O)N(C)Cc2ccccc2)s1,cell number change,,19.8%
COc1c(Cl)ccc(Cl)c1C(=O)NC(=O)N1CCOCC1,cell number change,,2.69%
same,AC50,[2],"0.0058 µM [falling, full curve, poor fit]"
COc1ccc(CCNC(=O)CN(C)S(=O)(=O)c2cccs2)cc1,cell number change,,-10.1%
same,AC50,[2],"0.00411 µM [rising, full curve, poor fit]"
COCCNC(=O)C1=NOC(Cn2cc(C#N)c(=O)n(C)c2=O)C1 (stereo not drawn),cell number change,,0.342%
CCCN1CCC(=O)N([C@H](COc2ccccc2)Cc2ccccc2)CC1,cell number change,,8.98%
OCC1(Cc2cccc(Cl)c2)CCCN(Cc2sc(N3CCCC3)nc2Cl)C1 (stereo not drawn),cell number change,,-21.2%
Cc1cc(N2CCCCC2)nc2ccccc12,cell number change,,19%
COc1ccc(COC(=O)N/N=C(\C)CC(=O)Nc2c(C)cc(C)cc2C)cc1,cell number change,,-5.82%
same,AC50,[1],"0.82 µM [rising, partial curve, poor fit]"
same,AC50,[2],"3.26 µM [rising, partial curve, poor fit]"
OC1CCN(c2c3c(nc4cc(-c5ccc(F)cc5)nn24)CCC3)CC1,cell number change,,13.2%
same,AC50,[2],"11.6 µM [rising, single point]"
CC1CCCCN1C(=O)CN1CCC(c2nc3ccc(Cl)cc3[nH]2)CC1 (stereo not drawn),cell number change,,12.3%
CCc1ccc(S(=O)(=O)NCCc2csc(-c3ccccc3)n2)s1,AC50,[1],"6.51 µM [rising, single point]"
COc1ccc(NC(=O)CNC(=O)c2cccs2)cc1Cl,cell number change,,-7.96%
same,AC50,[2],"29.1 µM [falling, single point]"
COc1ccc(N2CCN(S(=O)(=O)CCNC(=O)/C=C/c3ccc4c(c3)OCO4)CC2)cc1,AC50,[1],"3.66 µM [rising, single point]"
C=CCC(C=C)S(=O)(=O)c1ccc(C)cc1 (stereo not drawn),cell number change,,33.7%
same,AC50,[1],"14.6 µM [rising, single point]"
Cc1cc(C)c2nc(SCC(=O)N(C)C3CCS(=O)(=O)C3)cc(C)c2c1 (stereo not drawn),cell number change,,43%
CC(C)(C)c1nc2scc(-c3ccc(Cl)cc3)c2c(=O)o1,cell number change,,-8.13%
same,AC50,[2],"13 µM [falling, partial curve]"
COc1ccc(CCN2C(=O)C3C(C2=O)C2C=CC3C23CC3)cc1OC (stereo not drawn),AC50,[2],"0.259 µM [rising, partial curve, poor fit]"
CCCCc1ccc(NC(=O)Nc2cnccn2)cc1,cell number change,,28.6%
same,AC50,[2],"35.5 µM [rising, partial curve, poor fit]"
CN(C)C(=O)c1cccn1-c1ncc(C(F)(F)F)cc1Cl,cell number change,,-21.1%
O=C(NNS(=O)(=O)c1ccccc1)Nc1ccc(F)cc1,cell number change,,-10.2%
same,AC50,[2],"4.61 µM [rising, partial curve]"
N#C/C(=C\c1ccccc1)C(=O)NCc1ccc(F)cc1,cell number change,,14%
same,AC50,[2],"29.1 µM [falling, single point]"
COc1ccc2no[n+]([O-])c2c1,cell number change,,-12.5%
same,AC50,[1],"0.00461 µM [falling, full curve, poor fit]"
O=C1c2ccccc2C(=O)N1c1ccccc1S(=O)C(F)(F)F (stereo not drawn),cell number change,,19.2%
same,AC50,[1],"0.0411 µM [rising, full curve, poor fit]"
same,AC50,[2],"0.00517 µM [falling, full curve, poor fit]"
COC(=O)c1ccc(C)c(NC(=O)CSc2sc3c(O)cc(=O)[nH]c3c2C#N)c1,cell number change,,18.3%
COc1ccc(N(CC(=O)NC2CCCC2)C(=O)Cn2nnc(-c3ccc(C)cc3)n2)cc1OC,cell number change,,-13.3%
same,AC50,[2],"29.1 µM [rising, single point]"
O=[N+]([O-])c1cc([N+](=O)[O-])c(N2CCOCC2)cc1NCc1ccccc1,cell number change,,91.2%
same,AC50,[1],"18.4 µM [rising, single point]"
COc1ccc(CN2CCN(C(=O)c3ccc(S(=O)(=O)NCc4ccco4)cc3)CC2)cc1F,cell number change,,50.6%
same,AC50,[1],"14.6 µM [rising, partial curve]"
O=C(CSc1ccccn1)N/N=C/c1c[nH]c2ccccc12,cell number change,,9.29%
COc1ccc(-c2[nH]c(-c3ccc4c(c3)OCO4)nc2-c2ccccc2)cc1,cell number change,,-12.5%
same,AC50,[2],"29.1 µM [rising, single point]"
Oc1ccc(N=Nc2ccc3c(c2)OCCO3)c2ncccc12,cell number change,,-57.8%
same,AC50,[1],"29.1 µM [falling, single point]"
same,AC50,[2],"32.6 µM [falling, single point]"
FC(F)(F)c1nnc2c(Sc3ccccc3)nc3ccc(Cl)cc3n12,AC50,[2],"0.58 µM [rising, single point]"
C[C@H]1CN=C(N(C)C)N1CCc1ccc(F)cc1,cell number change,,-3.17%
same,AC50,[2],"29.1 µM [rising, single point]"
COc1ccc2c(C)cc(SCC(=O)Nc3cc(C(N)=O)cc(C(N)=O)c3)nc2c1,cell number change,,-53.8%
same,AC50,[2],"29.1 µM [falling, single point]"
CC(=O)c1ccc2c(c1)N(CCCN1CCC(CCO)CC1)c1ccccc1S2,cell number change,,6.24%
same,AC50,[2],"2.91 µM [rising, partial curve, poor fit]"
O=C(NC(=S)Nc1ccc2oc(=O)ccc2c1)c1cc2ccccc2o1,cell number change,,22.8%
same,AC50,[2],"6.51 µM [rising, full curve]"
CCOC(=O)c1sc2nc(C)n(N)c(=O)c2c1C,cell number change,,28.3%
CSc1nnc(-c2ccc(S(=O)(=O)N3CCCCC3)cc2)o1,cell number change,,3.97%
same,AC50,[1],"1.3 µM [rising, partial curve]"
O=C(O)c1cccc(Nc2ccc([N+](=O)[O-])c3nonc23)c1,cell number change,,11.7%
same,AC50,[2],"16.4 µM [rising, single point]"
COc1ccc2c(c1)OC[C@H]1[C@H]2N2C(=O)c3cc(Cl)ccc3NC(=O)[C@@]2(C)[C@H]1c1ccccc1,cell number change,,5.81%
O=C(C1CCN(S(=O)(=O)c2cccs2)CC1)N1CCN(Cc2ccccc2)CC1,cell number change,,6.8%
O=C(Cc1ccc([N+](=O)[O-])cc1)OCc1c(F)cccc1Cl,cell number change,,-8.45%
same,AC50,[2],"6.51 µM [falling, single point]"
CCOC(=O)c1c(C)[nH]c(C)c1C(=O)CSc1nncs1,AC50,[1],"0.461 µM [rising, full curve]"
COc1cc(OC)c(CN2CCN(c3ccc(F)cc3)CC2)cc1Br,cell number change,,9.03%
same,AC50,[2],"29.1 µM [rising, single point]"
CCCn1c(NC(=O)C23CC4CC(CC(O)(C4)C2)C3)nc2ccccc21,AC50,[2],"0.13 µM [rising, full curve, poor fit]"
Cc1ccc(C(=O)C2=C(O)C(=O)N(c3ncccn3)C2c2ccc(F)cc2)o1 (stereo not drawn),cell number change,,36.5%
same,AC50,[1],"23.1 µM [rising, single point]"
same,AC50,[2],"20.6 µM [rising, partial curve]"
COc1ccc(N2CC(C(=O)N[C@@H](C)C(=O)NC3CCCC3)CC2=O)cc1 (stereo partly drawn),cell number change,,41%
same,AC50,[1],"1.16 µM [rising, partial curve]"
same,AC50,[2],"29.1 µM [rising, single point]"
Cc1ccc(OCC(=O)N/N=C\c2ccc(O)cc2)c([N+](=O)[O-])c1,cell number change,,25%
CC(=O)Nc1ccc2c(c1)nc1n2CCN(C(C)c2ccccc2)C1 (stereo not drawn),cell number change,,6.25%
same,AC50,[2],"2.91 µM [rising, single point]"
CC(=O)Nc1ccc(S(=O)(=O)NCCC(=O)OCC(=O)c2cc(C)ccc2C)cc1,cell number change,,27%
same,AC50,[2],"0.731 µM [rising, partial curve]"
COc1ccc(Br)c(C(=O)OCC(=O)NC2CCCCCC2)c1,cell number change,,-25.7%
same,AC50,[2],"6.51 µM [falling, partial curve, poor fit]"
O=C(c1ccccc1NS(=O)(=O)c1ccc(Br)s1)N1CCCC1,cell number change,,-16.4%
O=C(c1cc2cc(Br)ccc2o1)N1CCCCC1,cell number change,,15.3%
same,AC50,[1],"1.16 µM [falling, full curve]"
same,AC50,[2],"0.651 µM [falling, full curve]"
CN1CC=C2C(C#N)=C(N)C(C#N)(C#N)[C@H](c3cccc(Cl)c3)C2C1 (stereo partly drawn),cell number change,,59.8%
same,AC50,[1],"0.731 µM [rising, full curve]"
same,AC50,[2],"0.82 µM [rising, full curve]"
CC(C)NS(=O)(=O)c1ccc(OCC(=O)N(C)Cc2ccccc2)cc1,cell number change,,-14.3%
same,AC50,[2],"6.51 µM [falling, partial curve]"
C=CCc1c(C)nc(SC)nc1Nc1ccccc1,cell number change,,-4.85%
same,AC50,[1],"0.291 µM [falling, partial curve]"
same,AC50,[2],"0.82 µM [falling, partial curve]"
CCCCCCN1C=CC(=C/C=C(\C#N)C(=O)OCC)C=C1,cell number change,,-10.8%
same,AC50,[1],"2.59 µM [rising, partial curve, poor fit]"
same,AC50,[2],"20.6 µM [falling, single point]"
COc1ccc(CCN(C)C(=O)C23CC4CC(CC(Cl)(C4)C2)C3)cc1OC,cell number change,,-3.18%
same,AC50,[1],"0.259 µM [rising, partial curve, poor fit]"
same,AC50,[2],"29.1 µM [rising, single point]"
CCC1CN(C(=O)N2CCC(C(=O)NCc3ccco3)CC2)c2ccccc2O1 (stereo not drawn),cell number change,,-0.885%
same,AC50,[2],"29.1 µM [rising, single point]"
O=C(CN1C(=O)NC2(CCc3ccccc32)C1=O)NCc1ccc(F)cc1 (stereo not drawn),AC50,[2],"32.6 µM [falling, single point]"
Cc1nn(-c2ccccc2)c2c1/C(=N/O)CC(C)(C)C2,cell number change,,-6.32%
same,AC50,[2],"0.651 µM [falling, full curve, poor fit]"
CC(C)(C)C(=O)Nc1cc2c3c(c1)CCN3C(=O)CC2,cell number change,,-20.9%
same,AC50,[2],"0.651 µM [falling, partial curve, poor fit]"
Cc1[nH]c(=O)c(C#N)cc1-c1ccccc1,cell number change,,-24.8%
same,AC50,[2],"14.6 µM [falling, partial curve]"

# In another format: entries from further up.
structure (smiles)	measurement	setting	value
COc1c(Cl)ccc(Cl)c1C(=O)NC(=O)N1CCOCC1	cell number change		2.69%
same	AC50	[2]	0.0058 µM [falling, full curve, poor fit]
OC1CCN(c2c3c(nc4cc(-c5ccc(F)cc5)nn24)CCC3)CC1	cell number change		13.2%
same	AC50	[2]	11.6 µM [rising, single point]
COc1ccc(NC(=O)CNC(=O)c2cccs2)cc1Cl	cell number change		-7.96%
same	AC50	[2]	29.1 µM [falling, single point]
CC(C)(C)c1nc2scc(-c3ccc(Cl)cc3)c2c(=O)o1	cell number change		-8.13%
N#C/C(=C\c1ccccc1)C(=O)NCc1ccc(F)cc1	cell number change		14%
O=C1c2ccccc2C(=O)N1c1ccccc1S(=O)C(F)(F)F (stereo not drawn)	cell number change		19.2%
COc1ccc(N(CC(=O)NC2CCCC2)C(=O)Cn2nnc(-c3ccc(C)cc3)n2)cc1OC	cell number change		-13.3%
COc1ccc(-c2[nH]c(-c3ccc4c(c3)OCO4)nc2-c2ccccc2)cc1	AC50	[2]	29.1 µM [rising, single point]
Oc1ccc(N=Nc2ccc3c(c2)OCCO3)c2ncccc12	cell number change		-57.8%
FC(F)(F)c1nnc2c(Sc3ccccc3)nc3ccc(Cl)cc3n12	AC50	[2]	0.58 µM [rising, single point]
CC(=O)c1ccc2c(c1)N(CCCN1CCC(CCO)CC1)c1ccccc1S2	cell number change		6.24%
CSc1nnc(-c2ccc(S(=O)(=O)N3CCCCC3)cc2)o1	AC50	[1]	1.3 µM [rising, partial curve]
O=C(Cc1ccc([N+](=O)[O-])cc1)OCc1c(F)cccc1Cl	AC50	[2]	6.51 µM [falling, single point]
COc1cc(OC)c(CN2CCN(c3ccc(F)cc3)CC2)cc1Br	cell number change		9.03%
Cc1ccc(C(=O)C2=C(O)C(=O)N(c3ncccn3)C2c2ccc(F)cc2)o1 (stereo not drawn)	cell number change		36.5%
Cc1ccc(OCC(=O)N/N=C\c2ccc(O)cc2)c([N+](=O)[O-])c1	cell number change		25%
CC(=O)Nc1ccc(S(=O)(=O)NCCC(=O)OCC(=O)c2cc(C)ccc2C)cc1	cell number change		27%
O=C(c1cc2cc(Br)ccc2o1)N1CCCCC1	AC50	[1]	1.16 µM [falling, full curve]
C=CCc1c(C)nc(SC)nc1Nc1ccccc1	cell number change		-4.85%
CCCCCCN1C=CC(=C/C=C(\C#N)C(=O)OCC)C=C1	cell number change		-10.8%
same	AC50	[1]	2.59 µM [rising, partial curve, poor fit]
CCC1CN(C(=O)N2CCC(C(=O)NCc3ccco3)CC2)c2ccccc2O1 (stereo not drawn)	AC50	[2]	29.1 µM [rising, single point]
O=C(CN1C(=O)NC2(CCc3ccccc32)C1=O)NCc1ccc(F)cc1 (stereo not drawn)	AC50	[2]	32.6 µM [falling, single point]
Cc1nn(-c2ccccc2)c2c1/C(=N/O)CC(C)(C)C2	cell number change		-6.32%
CC(C)(C)C(=O)Nc1cc2c3c(c1)CCN3C(=O)CC2	AC50	[2]	0.651 µM [falling, partial curve, poor fit]
Cc1[nH]c(=O)c(C#N)cc1-c1ccccc1	cell number change		-24.8%

# From PubChem BioAssay AID2685 (National Center for Advancing Translational Sciences (NCATS), 2010)
